No signal at the amounts used counts as a negative. For some assays here: Tags and fusion partners may be left off the protein sequences shown. For some assays here: The exact form of at least one protein or probe is not confirmed.
What was measured:
Assay in all cases: binding assay
[1] = tested on: Allium sativum agglutinin (ASA) (Allium sativum); details: after the 5' primer region all dT replaced by 4 (alpha-D-mannose-triazole-modified C8-alkyne-dU); natural dC; lectin array 0.04-400 nM; only ConA gave strong signal; purified native protein; protein details: RayBiotech Lectin Array 40; label: particle-displayed, or 5'-biotinTEG; single-stranded DNA; variant of 3-1
[2] = target: T1, Amaranthus caudatus lectin (ACL) (Amaranthus caudatus) (UniProt Q71QF2); details: after the 5' primer region all dT replaced by 4 (alpha-D-mannose-triazole-modified C8-alkyne-dU); natural dC; lectin array 0.04-400 nM; only ConA gave strong signal; purified native protein; protein details: RayBiotech Lectin Array 40; label: particle-displayed, or 5'-biotinTEG; single-stranded DNA; variant of 3-1
T1 sequence (looked up, limits assumed): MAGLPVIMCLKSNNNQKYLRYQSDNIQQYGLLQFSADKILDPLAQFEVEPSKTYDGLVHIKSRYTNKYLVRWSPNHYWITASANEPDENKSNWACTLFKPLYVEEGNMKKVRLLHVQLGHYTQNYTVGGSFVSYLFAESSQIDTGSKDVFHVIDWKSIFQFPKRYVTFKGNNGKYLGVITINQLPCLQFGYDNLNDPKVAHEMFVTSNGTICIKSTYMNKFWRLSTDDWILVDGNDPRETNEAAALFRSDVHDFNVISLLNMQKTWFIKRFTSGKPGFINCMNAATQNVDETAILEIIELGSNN

Amino acid sequences for entries named in this document (tags omitted). Residues count along the entry.
UniProt P05046, 33-285: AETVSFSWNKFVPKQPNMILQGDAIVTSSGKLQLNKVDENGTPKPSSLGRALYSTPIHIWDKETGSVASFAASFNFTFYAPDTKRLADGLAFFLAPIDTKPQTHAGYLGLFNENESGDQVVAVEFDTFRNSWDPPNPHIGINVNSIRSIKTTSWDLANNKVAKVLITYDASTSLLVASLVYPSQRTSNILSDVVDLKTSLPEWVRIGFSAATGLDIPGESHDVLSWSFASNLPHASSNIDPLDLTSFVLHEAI

[3] = target: T2, Bauhinia purpurea lectin (BPA) (Bauhinia purpurea) (UniProt P16030); details: after the 5' primer region all dT replaced by 4 (alpha-D-mannose-triazole-modified C8-alkyne-dU); natural dC; lectin array 0.04-400 nM; only ConA gave strong signal; purified native protein; protein details: RayBiotech Lectin Array 40; label: particle-displayed, or 5'-biotinTEG; single-stranded DNA; variant of 3-1
T2 sequence (looked up, limits assumed): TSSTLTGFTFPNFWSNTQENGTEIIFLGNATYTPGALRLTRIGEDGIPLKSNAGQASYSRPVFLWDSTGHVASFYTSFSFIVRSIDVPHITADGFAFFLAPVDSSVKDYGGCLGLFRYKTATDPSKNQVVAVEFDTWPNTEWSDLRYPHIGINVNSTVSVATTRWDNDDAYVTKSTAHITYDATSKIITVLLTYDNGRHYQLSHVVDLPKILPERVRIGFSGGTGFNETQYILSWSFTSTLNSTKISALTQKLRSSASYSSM

[4] = tested on: Datura stramonium lectin (DSA) (Datura stramonium); details: after the 5' primer region all dT replaced by 4 (alpha-D-mannose-triazole-modified C8-alkyne-dU); natural dC; lectin array 0.04-400 nM; only ConA gave strong signal; purified native protein; protein details: RayBiotech Lectin Array 40; label: particle-displayed, or 5'-biotinTEG; single-stranded DNA; variant of 3-1
[5] = target: T3, Dolichos biflorus lectin (DBA) (Dolichos biflorus) (UniProt P05045); details: after the 5' primer region all dT replaced by 4 (alpha-D-mannose-triazole-modified C8-alkyne-dU); natural dC; lectin array 0.04-400 nM; only ConA gave strong signal; purified native protein; protein details: RayBiotech Lectin Array 40; label: particle-displayed, or 5'-biotinTEG; single-stranded DNA; variant of 3-1
T3 sequence (looked up, limits assumed): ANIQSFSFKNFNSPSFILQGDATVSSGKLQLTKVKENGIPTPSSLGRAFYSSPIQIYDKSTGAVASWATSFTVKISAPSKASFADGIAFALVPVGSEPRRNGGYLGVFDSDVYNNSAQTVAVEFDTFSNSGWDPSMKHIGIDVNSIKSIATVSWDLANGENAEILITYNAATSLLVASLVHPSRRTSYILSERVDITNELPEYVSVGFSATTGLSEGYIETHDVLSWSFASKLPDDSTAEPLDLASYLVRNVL

[6] = target: T4, Galanthus nivalis lectin (GNA) (Galanthus nivalis) (UniProt P30617); details: after the 5' primer region all dT replaced by 4 (alpha-D-mannose-triazole-modified C8-alkyne-dU); natural dC; lectin array 0.04-400 nM; only ConA gave strong signal; purified native protein; protein details: RayBiotech Lectin Array 40; label: particle-displayed, or 5'-biotinTEG; single-stranded DNA; variant of 3-1
T4 sequence (looked up, limits assumed): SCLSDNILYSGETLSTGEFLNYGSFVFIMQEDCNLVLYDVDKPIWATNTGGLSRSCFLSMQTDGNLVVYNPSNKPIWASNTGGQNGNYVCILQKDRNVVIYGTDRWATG

[7] = target: T5, Griffonia simplicifolia lectin II (GS-II) (Griffonia simplicifolia) (UniProt Q41263); details: after the 5' primer region all dT replaced by 4 (alpha-D-mannose-triazole-modified C8-alkyne-dU); natural dC; lectin array 0.04-400 nM; only ConA gave strong signal; purified native protein; protein details: RayBiotech Lectin Array 40; label: particle-displayed, or 5'-biotinTEG; single-stranded DNA; variant of 3-1
T5 sequence (looked up, limits assumed): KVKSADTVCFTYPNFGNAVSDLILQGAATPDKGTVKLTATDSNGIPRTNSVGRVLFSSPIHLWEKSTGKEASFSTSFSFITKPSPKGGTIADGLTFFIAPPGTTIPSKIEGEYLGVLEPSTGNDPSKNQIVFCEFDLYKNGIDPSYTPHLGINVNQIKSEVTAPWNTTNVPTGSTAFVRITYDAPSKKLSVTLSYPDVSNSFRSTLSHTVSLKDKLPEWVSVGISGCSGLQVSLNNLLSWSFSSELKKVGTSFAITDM

[8] = target: T6, Jacalin (Artocarpus integrifolia) (UniProt P18670); details: after the 5' primer region all dT replaced by 4 (alpha-D-mannose-triazole-modified C8-alkyne-dU); natural dC; lectin array 0.04-400 nM; only ConA gave strong signal; purified native protein; protein details: RayBiotech Lectin Array 40; label: particle-displayed, or 5'-biotinTEG; single-stranded DNA; variant of 3-1
T6 sequence (looked up, limits assumed): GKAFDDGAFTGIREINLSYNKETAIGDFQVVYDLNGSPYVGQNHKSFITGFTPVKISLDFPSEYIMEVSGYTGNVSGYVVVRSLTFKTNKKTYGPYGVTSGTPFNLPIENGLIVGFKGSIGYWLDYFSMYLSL

[9] = target: T7, Maclura pomifera lectin (MPL) (Maclura pomifera) (UniProt P18674); details: after the 5' primer region all dT replaced by 4 (alpha-D-mannose-triazole-modified C8-alkyne-dU); natural dC; lectin array 0.04-400 nM; only ConA gave strong signal; purified native protein; protein details: RayBiotech Lectin Array 40; label: particle-displayed, or 5'-biotinTEG; single-stranded DNA; variant of 3-1
T7 sequence (looked up, limits assumed): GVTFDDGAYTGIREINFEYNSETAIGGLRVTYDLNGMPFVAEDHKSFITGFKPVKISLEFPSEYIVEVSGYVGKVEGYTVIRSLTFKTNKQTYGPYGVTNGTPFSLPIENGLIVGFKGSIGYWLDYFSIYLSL

[10] = tested on: Sambucus nigra lectin II (SNA-II) (Sambucus nigra); details: after the 5' primer region all dT replaced by 4 (alpha-D-mannose-triazole-modified C8-alkyne-dU); natural dC; lectin array 0.04-400 nM; only ConA gave strong signal; purified native protein; protein details: RayBiotech Lectin Array 40; label: particle-displayed, or 5'-biotinTEG; single-stranded DNA; variant of 3-1
[11] = target: T8, Solanum tuberosum lectin (STL) (Solanum tuberosum) (UniProt Q9S8M0); details: after the 5' primer region all dT replaced by 4 (alpha-D-mannose-triazole-modified C8-alkyne-dU); natural dC; lectin array 0.04-400 nM; only ConA gave strong signal; purified native protein; protein details: RayBiotech Lectin Array 40; label: particle-displayed, or 5'-biotinTEG; single-stranded DNA; variant of 3-1
T8 sequence (looked up, limits assumed): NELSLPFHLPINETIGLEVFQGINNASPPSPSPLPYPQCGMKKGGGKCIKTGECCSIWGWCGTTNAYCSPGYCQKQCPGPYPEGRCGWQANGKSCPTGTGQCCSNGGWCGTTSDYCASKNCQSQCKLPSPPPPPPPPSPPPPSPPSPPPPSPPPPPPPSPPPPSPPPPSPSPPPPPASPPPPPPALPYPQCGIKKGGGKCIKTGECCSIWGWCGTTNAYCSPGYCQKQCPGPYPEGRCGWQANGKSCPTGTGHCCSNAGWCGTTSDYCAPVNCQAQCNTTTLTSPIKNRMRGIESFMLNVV

[12] = target: T9, Sophora japonica lectin (SJA) (Sophora japonica) (UniProt P93535); details: after the 5' primer region all dT replaced by 4 (alpha-D-mannose-triazole-modified C8-alkyne-dU); natural dC; lectin array 0.04-400 nM; only ConA gave strong signal; purified native protein; protein details: RayBiotech Lectin Array 40; label: particle-displayed, or 5'-biotinTEG; single-stranded DNA; variant of 3-1
T9 sequence (looked up, limits assumed): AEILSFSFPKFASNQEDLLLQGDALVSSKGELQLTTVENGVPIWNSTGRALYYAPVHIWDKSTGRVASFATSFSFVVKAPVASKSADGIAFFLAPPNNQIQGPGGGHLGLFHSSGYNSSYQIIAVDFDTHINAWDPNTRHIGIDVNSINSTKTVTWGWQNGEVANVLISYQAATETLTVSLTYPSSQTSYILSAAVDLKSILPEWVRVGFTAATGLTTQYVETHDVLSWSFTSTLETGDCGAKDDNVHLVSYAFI

[13] = target: Soybean agglutinin (SBA) (Glycine max) (UniProt P05046); details: after the 5' primer region all dT replaced by 4 (alpha-D-mannose-triazole-modified C8-alkyne-dU); natural dC; lectin array 0.04-400 nM; only ConA gave strong signal; purified native protein; protein details: RayBiotech Lectin Array 40; label: particle-displayed, or 5'-biotinTEG; single-stranded DNA; variant of 3-1
[14] = target: T10, Vicia villosa lectin (VVA) (Vicia villosa) (UniProt P56625); details: after the 5' primer region all dT replaced by 4 (alpha-D-mannose-triazole-modified C8-alkyne-dU); natural dC; lectin array; signal judged false positive (present without 3-1m); purified native protein; protein details: RayBiotech Lectin Array 40; label: particle-displayed, or 5'-biotinTEG; single-stranded DNA; variant of 3-1
T10 sequence (looked up, limits assumed): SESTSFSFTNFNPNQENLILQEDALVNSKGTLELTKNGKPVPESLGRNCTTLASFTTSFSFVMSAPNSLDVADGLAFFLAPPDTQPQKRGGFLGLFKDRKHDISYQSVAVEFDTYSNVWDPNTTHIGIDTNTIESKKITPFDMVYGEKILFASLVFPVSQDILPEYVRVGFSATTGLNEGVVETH

Measured: binding result

GATCCCAGTCCGAAGTAATCGTTGCATCTGCACGACTGGTGAGCTTGAGTGGCAGAAGAACTTGTGCAAACGGCTATAGG [3-1m]
no binding: all assays above

Reference: US20210332360
